The text below walks through data of PubChem BioAssay AID330 (DTP/NCI, 2004).

This assay deals with P388 leukemia ip, CD2F1 mice, survival T/C. Description: NCI In Vivo Anticancer Drug Screen. Data for tumor model P388 Leukemia (intraperitoneal) in CD2F1 (CDF1) mice. Conditions: T/C endpoint: median survival time, higher T/C = longer survival.
The mark [1] stands for this setting: dose: 100.0 mg/kg/injection, schedule: Q01DX005 (ip), vehicle: saline with Tween-80.
Where [2] appears, read: dose: 200.0 mg/kg/injection, schedule: Q01DX005 (ip), vehicle: saline with Tween-80.
The mark [3] stands for this setting: dose: 50.0 mg/kg/injection, schedule: Q01DX009 (ip), vehicle: saline with Tween-80.
[4] abbreviates: dose: 100.0 mg/kg/injection, schedule: Q01DX009 (ip), vehicle: saline with Tween-80.
Setting [5] is: dose: 200.0 mg/kg/injection, schedule: Q01DX009 (ip), vehicle: saline with Tween-80.
[6] abbreviates: dose: 240.0 mg/kg/injection, schedule: Q01DX005 (ip), vehicle: saline with Tween-80.
Setting [7] is: dose: 25.0 mg/kg/injection, schedule: Q01DX009 (ip), vehicle: saline with Tween-80.

The list shows only some results of the screen, not a fair sample: it gathers tests that were run many times, whatever their T/C, doses with no T/C, and many T/C values between a quarter and a half above the control. Other doses and runs of a compound stand elsewhere. T/C is the treated group as % of the vehicle group. Some entries give survivors of the animals treated and no T/C: the source holds a T/C of zero for them, seemingly a mark for toxic or unscored doses. Some doses without a T/C left all or most animals alive at the check, yet need not have been tolerated: survival well below the control is almost never listed, so the zero probably covers shortened survival too. Counts of survivors are from the toxicity check (mostly the fifth day) where no day follows; animals may have died later. Schedules are NCI's codes, taken here to give the interval after Q, in days (D) or hours (H), and the number of doses after X. Some entries were tested several times; the results are listed from low to high. Counts like (3×) give the number of equal values in this list. Where survival is the endpoint, the PubChem record calls one and a half times the control and up active, and a quarter to a half above the control has no call in these data; cut-offs in other NCI protocols can differ. Some T/C values carry the count of animals alive at the toxicity check (mostly the fifth day); where none is given, no animal had died by that day.

Regarding `CCOc1c(N=Nc2ccccc2[N+](=O)[O-])c(C)nn1C(N)=S`, the survivor count by setting is: (dose: 120.0 mg/kg/injection, schedule: Q01DX005 (ip), vehicle: Klucel + Tween-80) 0 of 6; (dose: 240.0 mg/kg/injection, schedule: Q01DX005 (ip), vehicle: Klucel + Tween-80) 0 of 6.

For `CC1CC(c2ccccc2)(c2ccccc2)CN1C` (centres undefined), the survivor count under setting [1] was 3 of 5 and the survivor count under setting [2] is 0 of 5.

For the compound `CN(C)[C@@H]1C(=O)C(C(N)=O)=C(O)[C@@]2(O)C(=O)C3=C(O)c4c(O)ccc(Cl)c4[C@@](C)(O)[C@H]3C[C@@H]12`, the survivor count (dose: 400.0 mg/kg/injection, schedule: Q04DX003 (ip), vehicle: saline) is recorded as 0 of 6.

Take `CN=C(N)N/N=C(\C)c1ccc2c(c1)Cc1cc(/C(C)=N/NC(N)=NC)ccc1-2`: the T/C is, setting by setting: (dose: 0.78 mg/kg/injection, schedule: Q04DX002 (ip), vehicle: saline with Tween-80) 133 % of control; (dose: 1.56 mg/kg/injection, schedule: Q04DX002 (ip), vehicle: saline with Tween-80) 132 and 145 % of control; (dose: 3.12 mg/kg/injection, schedule: Q04DX002 (ip), vehicle: saline with Tween-80) 135 [5 of 6 alive], 142, 142 % of control [5 of 6 alive]; (dose: 6.25 mg/kg/injection, schedule: Q04DX002 (ip), vehicle: saline with Tween-80) 148 and 149 % of control [5 of 6 alive]. The survivor count runs as follows: (dose: 12.5 mg/kg/injection, schedule: Q04DX002 (ip), vehicle: saline with Tween-80) 5 of 6 and 6 of 6; (dose: 25.0 mg/kg/injection, schedule: Q04DX002 (ip), vehicle: saline with Tween-80) 2 of 6; (dose: 50.0 mg/kg/injection, schedule: Q04DX002 (ip), vehicle: saline with Tween-80) 0 of 6; (dose: 100.0 mg/kg/injection, schedule: Q04DX002 (ip), vehicle: saline with Tween-80) 0 of 6.

Consider `CCC[CH2][Sn]1([CH2]CCC)[O]C(=O)c2c(Cl)c(Cl)c(Cl)c(Cl)c2C(=O)[O]1`, for which the T/C (dose: 6.25 mg/kg/injection, schedule: Q01DX005 (ip), vehicle: saline with Tween-80) was 127 % of control. The survivor count reads like this: (dose: 12.5 mg/kg/injection, schedule: Q01DX005 (ip), vehicle: saline with Tween-80) 1 of 6 and 6 of 6; (dose: 25.0 mg/kg/injection, schedule: Q01DX005 (ip), vehicle: saline with Tween-80) 0 of 6; (dose: 50.0 mg/kg/injection, schedule: Q01DX005 (ip), vehicle: saline with Tween-80) 0 of 6; under setting [1], 0 of 6; under setting [2], 0 of 6.

For the compound `CCCCOCN(COCCCC)C(C)Cc1ccccc1` (centres undefined), the T/C runs as follows: under setting [3], 138 % of control; under setting [4], 138 % of control; under setting [5], 141 % of control.

As to `O=C1c2ccccc2C(=O)C1c1cc(Cl)c(O)c(Cl)c1`, the T/C (dose: 400.0 mg/kg/injection, schedule: Q04DX002 (ip), vehicle: saline) was 127 % of control [5 of 6 alive].

Regarding `CC(C)OC1CC(C)(O)Cc2cc3c(c(O)c21)C(=O)c1c(O)cc2c(c1C3=O)OC1OC2(C)C(O)C(N(C)C)C1O` (centres undefined), the survivor count (dose: 32.0 mg/kg/injection, schedule: Q01DX009 (ip), vehicle: other) is on record as 0 of 6.

On to `CC(C)SC(=S)S(=O)(=O)c1ccc(Cl)cc1`, for which the survivor count under setting [5] is 0 of 6 (2×).

As for `O=c1c(Cc2c(-c3ccccc3)[nH]c3ccccc23)coc2ccccc12`, the survivor count under setting [6] is listed as 6 of 6.

As to `COc1cccc(CN2CCCN(/N=C/c3c4c(O)c5c(O)c(C)c6c(c5c3O)C(=O)C(C)(O/C=C/C(OC)C(C)C(OC(C)=O)C(C)C(O)C(C)C(O)C(C)/C=C/C=C(/C)C(=O)N4)O6)CC2)c1` (centres undefined), under setting [5], the survivor count is reported as 4 of 6.

For `Nc1ncnc2c1nc([Se])n2C1OC(CO)C(O)C1O` (centres undefined), the survivor count (dose: 50.0 mg/kg/injection, schedule: Q01DX005 (ip), vehicle: other) was 3 of 3.

On to `Nc1nc(N)c2cc(CNc3ccc(C(=O)NC(CC(=O)O)C(=O)O)cc3)ccc2n1` (centres undefined), for which the T/C is, setting by setting: (dose: 0.25 mg/kg/injection, schedule: Q01DX009 (ip), vehicle: saline) 140 % of control; (dose: 0.5 mg/kg/injection, schedule: Q04DX003 (ip), vehicle: saline with Tween-80) 136 % of control. For the setting “dose: 2.0 mg/kg/injection, schedule: Q01DX009 (ip), vehicle: saline”, the survivor count is 6 of 6.

In the case of `Nc1ncnc2c1ncn2C1OCC(O)C1O` (centres undefined), the survivor count (dose: 200.0 mg/kg/injection, schedule: Q01DX009 (ip), vehicle: suspension in saline) is given as 6 of 6.

On to `CCC(C)NC1(N(C)C)N=C(N(C)C)N=C(N(C)C)O1` (centres undefined), for which the survivor count (dose: 200.0 mg/kg/injection, schedule: Q01DX005 (ip), vehicle: saline) is given as 0 of 6.

For `C/C(=N\NC(=S)N(C)C)c1ncc[nH]1`, under setting [2], the T/C is 127 % of control.

`CC1C2Cc3ccc(O)cc3C1(C)CCN2C` (centres undefined): the survivor count under setting [6] is given as 1 of 6.

On to `CCO/C=C1\SC(=S)N(c2ccccc2OC)C1=O`, for which the T/C is 135 % of control under setting [4]; 135 % of control under setting [5]; 127 % of control (dose: 400.0 mg/kg/injection, schedule: Q04DX003 (ip), vehicle: saline with Tween-80). Besides, the survivor count is, setting by setting: (dose: 300.0 mg/kg/injection, schedule: Q01DX009 (ip), vehicle: saline with Tween-80) 6 of 6; (dose: 400.0 mg/kg/injection, schedule: Q01DX009 (ip), vehicle: saline with Tween-80) 5 of 6.

`O=C(c1ccccc1)C(NCc1ccccc1)(Nc1ccccn1)c1ccccc1` (centres undefined): the survivor count (dose: 120.0 mg/kg/injection, schedule: Q01DX005 (ip), vehicle: Klucel (hydroxypropylcellulose) (HPC)) is reported as 6 of 6.

As to `CC1(c2ccc(Cl)cc2)OC(=O)C(=Cc2ccc([N+](=O)[O-])s2)C(=O)O1` (centres undefined), the T/C is, setting by setting: under setting [7], 125 % of control; under setting [3], 125 and 127 % of control; under setting [4], 129 % of control [5 of 6 alive]. Also, the survivor count under setting [5] was 2 of 6 and 4 of 6.

On to `Nc1n[n+](C2CCCCC2)no1`, for which the survivor count is 1 of 6 (dose: 25.0 mg/kg/injection, schedule: Q01DX009 (ip), vehicle: water); 0 of 6 (dose: 50.0 mg/kg/injection, schedule: Q01DX009 (ip), vehicle: water); 0 of 6 (dose: 100.0 mg/kg/injection, schedule: Q01DX009 (ip), vehicle: water).

Take `COc1ccc(/C=C/C(=O)c2ccc3c(c2)OCO3)cc1OC`: the T/C (dose: 100.0 mg/kg/injection, schedule: Q04DX003 (ip), vehicle: saline with Tween-80) is 145 % of control.

Regarding `CCCCc1ccc(-c2nn[nH]n2)nc1`, the survivor count (dose: 400.0 mg/kg/injection, schedule: Q04DX002 (ip), vehicle: saline with Tween-80) is listed as 0 of 6.

For the compound `CCCCN(CCCC)CNC(=O)c1ccccc1`, the survivor count under setting [2] is 3 of 5.

With `C[C](C)(C)[Ge]([O][Ge]([c]1ccccc1)[c]1ccccc1)([O][Ge]([c]1ccccc1)[c]1ccccc1)[C](C)(C)C`, the survivor count under setting [6] is 3 of 6.

In the case of `COC(=O)CC(O)(CCCC(C)(C)O)C(=O)OC1C(OC)=CC23CCCN2CCc2cc4c(cc2C13)OCO4` (centres undefined) (tested in a mixture with another compound), the T/C (dose: 0.25 mg/kg/injection, schedule: Q01DX009 (ip), vehicle: saline with Tween-80) is 141 % of control.

Turning to `C[n+]1c2ccccc2c(N)c2ccccc21`, the survivor count (dose: 60.0 mg/kg/injection, schedule: Q04DX002 (ip), vehicle: saline with Tween-80) is on record as 1 of 6 and the survivor count (dose: 120.0 mg/kg/injection, schedule: Q04DX002 (ip), vehicle: saline with Tween-80) is reported as 1 of 6.

`Oc1c(Cl)cc(Cl)cc1/C=N/c1nc(-c2ccc(Cl)cc2)cs1`: the survivor count by setting is: (dose: 6.25 mg/kg/injection, schedule: Q01DX009 (ip), vehicle: saline with Tween-80) 6 of 6; (dose: 12.5 mg/kg/injection, schedule: Q01DX009 (ip), vehicle: saline with Tween-80) 6 of 6; under setting [7], 6 of 6; under setting [3], 5 of 6.

As to `COc1ncc[n+]([O-])n1`, under setting [3], the survivor count was 6 of 6.

In the case of `Cc1cc2nc3ccc(O)cc3[n+](C)c2cc1N`, the T/C by setting is: under setting [3], 131 % of control; under setting [4], 127 % of control. Moreover, the survivor count under setting [5] is given as 0 of 6.

Take `C=CC12COC(=O)CC1CCC(=O)C2` (centres undefined): the survivor count (dose: 400.0 mg/kg/injection, schedule: Q04DX003 (ip), vehicle: Klucel (hydroxypropylcellulose) (HPC)) is 1 of 6.
